Among the data in paper PMC10575922 are binding values, retold here.

The chains behind the UniProt entries cited, without tags or fusion partners.
UniProt P15924: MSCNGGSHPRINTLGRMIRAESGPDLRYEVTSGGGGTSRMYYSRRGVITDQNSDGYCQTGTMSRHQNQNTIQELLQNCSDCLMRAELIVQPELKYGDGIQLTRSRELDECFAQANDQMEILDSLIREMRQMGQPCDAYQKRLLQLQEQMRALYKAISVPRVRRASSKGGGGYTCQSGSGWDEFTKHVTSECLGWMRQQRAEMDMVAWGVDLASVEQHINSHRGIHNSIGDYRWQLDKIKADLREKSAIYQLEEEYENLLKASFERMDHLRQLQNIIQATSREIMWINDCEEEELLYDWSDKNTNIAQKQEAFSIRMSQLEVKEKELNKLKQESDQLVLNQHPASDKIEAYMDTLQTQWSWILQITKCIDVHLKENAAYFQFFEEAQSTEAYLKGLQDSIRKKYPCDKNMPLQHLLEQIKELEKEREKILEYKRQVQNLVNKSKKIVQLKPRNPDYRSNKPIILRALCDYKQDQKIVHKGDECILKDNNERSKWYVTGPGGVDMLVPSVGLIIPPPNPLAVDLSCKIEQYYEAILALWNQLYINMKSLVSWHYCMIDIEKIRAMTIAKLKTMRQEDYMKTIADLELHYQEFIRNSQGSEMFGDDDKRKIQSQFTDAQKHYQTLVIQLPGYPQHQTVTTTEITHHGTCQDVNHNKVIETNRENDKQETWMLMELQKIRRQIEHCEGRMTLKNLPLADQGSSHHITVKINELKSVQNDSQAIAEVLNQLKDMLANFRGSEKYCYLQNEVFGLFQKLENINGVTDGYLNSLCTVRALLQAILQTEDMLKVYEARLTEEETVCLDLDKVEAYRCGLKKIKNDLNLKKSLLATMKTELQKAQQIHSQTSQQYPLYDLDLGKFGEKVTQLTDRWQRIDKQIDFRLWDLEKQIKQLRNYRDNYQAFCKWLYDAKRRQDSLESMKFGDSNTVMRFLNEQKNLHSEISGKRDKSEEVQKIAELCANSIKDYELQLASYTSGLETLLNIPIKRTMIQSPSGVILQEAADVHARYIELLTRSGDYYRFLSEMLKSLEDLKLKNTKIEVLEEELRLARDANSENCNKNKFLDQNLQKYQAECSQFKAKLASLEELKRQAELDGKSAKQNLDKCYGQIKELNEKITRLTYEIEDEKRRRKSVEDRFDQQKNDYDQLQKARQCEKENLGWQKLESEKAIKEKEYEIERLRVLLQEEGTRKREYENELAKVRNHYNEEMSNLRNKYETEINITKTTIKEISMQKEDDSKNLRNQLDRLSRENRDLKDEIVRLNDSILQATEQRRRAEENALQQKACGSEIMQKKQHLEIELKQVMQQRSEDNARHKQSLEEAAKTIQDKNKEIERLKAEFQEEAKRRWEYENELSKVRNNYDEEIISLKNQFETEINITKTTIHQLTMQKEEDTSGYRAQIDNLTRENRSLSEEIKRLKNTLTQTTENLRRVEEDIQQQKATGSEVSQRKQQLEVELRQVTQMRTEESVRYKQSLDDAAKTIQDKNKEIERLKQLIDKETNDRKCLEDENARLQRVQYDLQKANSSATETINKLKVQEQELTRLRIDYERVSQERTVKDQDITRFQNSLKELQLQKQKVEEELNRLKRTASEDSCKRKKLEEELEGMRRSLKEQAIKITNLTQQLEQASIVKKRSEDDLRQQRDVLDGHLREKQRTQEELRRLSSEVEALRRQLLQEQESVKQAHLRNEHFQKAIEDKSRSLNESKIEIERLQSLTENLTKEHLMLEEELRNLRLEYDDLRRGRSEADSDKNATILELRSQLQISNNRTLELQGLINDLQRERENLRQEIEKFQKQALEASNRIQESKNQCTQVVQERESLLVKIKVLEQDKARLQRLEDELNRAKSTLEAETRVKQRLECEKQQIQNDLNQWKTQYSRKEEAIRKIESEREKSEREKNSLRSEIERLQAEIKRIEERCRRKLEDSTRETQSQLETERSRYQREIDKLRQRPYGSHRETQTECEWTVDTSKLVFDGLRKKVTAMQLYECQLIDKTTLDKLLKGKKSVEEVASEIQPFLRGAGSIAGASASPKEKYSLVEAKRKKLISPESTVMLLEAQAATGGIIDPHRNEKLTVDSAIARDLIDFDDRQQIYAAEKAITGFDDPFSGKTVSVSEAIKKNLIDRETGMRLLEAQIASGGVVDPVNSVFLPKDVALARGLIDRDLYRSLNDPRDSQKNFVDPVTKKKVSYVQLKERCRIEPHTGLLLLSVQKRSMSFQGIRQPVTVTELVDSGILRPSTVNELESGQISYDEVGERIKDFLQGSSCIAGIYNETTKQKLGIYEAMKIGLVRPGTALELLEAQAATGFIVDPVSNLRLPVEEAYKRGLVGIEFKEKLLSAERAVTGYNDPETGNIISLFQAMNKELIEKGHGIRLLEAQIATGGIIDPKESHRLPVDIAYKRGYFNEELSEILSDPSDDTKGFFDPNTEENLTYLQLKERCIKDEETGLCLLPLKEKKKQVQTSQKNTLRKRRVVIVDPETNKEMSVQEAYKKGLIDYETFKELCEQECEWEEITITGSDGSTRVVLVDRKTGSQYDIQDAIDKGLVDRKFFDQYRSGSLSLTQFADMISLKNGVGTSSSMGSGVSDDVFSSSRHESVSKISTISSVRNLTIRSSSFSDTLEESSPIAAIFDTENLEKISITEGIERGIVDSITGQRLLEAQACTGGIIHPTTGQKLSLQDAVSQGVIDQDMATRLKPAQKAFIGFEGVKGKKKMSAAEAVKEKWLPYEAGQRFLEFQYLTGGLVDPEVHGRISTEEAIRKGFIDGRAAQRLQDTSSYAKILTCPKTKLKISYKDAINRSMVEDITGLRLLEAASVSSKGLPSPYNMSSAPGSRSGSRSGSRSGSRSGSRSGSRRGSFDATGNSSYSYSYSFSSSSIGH
UniProt P35580: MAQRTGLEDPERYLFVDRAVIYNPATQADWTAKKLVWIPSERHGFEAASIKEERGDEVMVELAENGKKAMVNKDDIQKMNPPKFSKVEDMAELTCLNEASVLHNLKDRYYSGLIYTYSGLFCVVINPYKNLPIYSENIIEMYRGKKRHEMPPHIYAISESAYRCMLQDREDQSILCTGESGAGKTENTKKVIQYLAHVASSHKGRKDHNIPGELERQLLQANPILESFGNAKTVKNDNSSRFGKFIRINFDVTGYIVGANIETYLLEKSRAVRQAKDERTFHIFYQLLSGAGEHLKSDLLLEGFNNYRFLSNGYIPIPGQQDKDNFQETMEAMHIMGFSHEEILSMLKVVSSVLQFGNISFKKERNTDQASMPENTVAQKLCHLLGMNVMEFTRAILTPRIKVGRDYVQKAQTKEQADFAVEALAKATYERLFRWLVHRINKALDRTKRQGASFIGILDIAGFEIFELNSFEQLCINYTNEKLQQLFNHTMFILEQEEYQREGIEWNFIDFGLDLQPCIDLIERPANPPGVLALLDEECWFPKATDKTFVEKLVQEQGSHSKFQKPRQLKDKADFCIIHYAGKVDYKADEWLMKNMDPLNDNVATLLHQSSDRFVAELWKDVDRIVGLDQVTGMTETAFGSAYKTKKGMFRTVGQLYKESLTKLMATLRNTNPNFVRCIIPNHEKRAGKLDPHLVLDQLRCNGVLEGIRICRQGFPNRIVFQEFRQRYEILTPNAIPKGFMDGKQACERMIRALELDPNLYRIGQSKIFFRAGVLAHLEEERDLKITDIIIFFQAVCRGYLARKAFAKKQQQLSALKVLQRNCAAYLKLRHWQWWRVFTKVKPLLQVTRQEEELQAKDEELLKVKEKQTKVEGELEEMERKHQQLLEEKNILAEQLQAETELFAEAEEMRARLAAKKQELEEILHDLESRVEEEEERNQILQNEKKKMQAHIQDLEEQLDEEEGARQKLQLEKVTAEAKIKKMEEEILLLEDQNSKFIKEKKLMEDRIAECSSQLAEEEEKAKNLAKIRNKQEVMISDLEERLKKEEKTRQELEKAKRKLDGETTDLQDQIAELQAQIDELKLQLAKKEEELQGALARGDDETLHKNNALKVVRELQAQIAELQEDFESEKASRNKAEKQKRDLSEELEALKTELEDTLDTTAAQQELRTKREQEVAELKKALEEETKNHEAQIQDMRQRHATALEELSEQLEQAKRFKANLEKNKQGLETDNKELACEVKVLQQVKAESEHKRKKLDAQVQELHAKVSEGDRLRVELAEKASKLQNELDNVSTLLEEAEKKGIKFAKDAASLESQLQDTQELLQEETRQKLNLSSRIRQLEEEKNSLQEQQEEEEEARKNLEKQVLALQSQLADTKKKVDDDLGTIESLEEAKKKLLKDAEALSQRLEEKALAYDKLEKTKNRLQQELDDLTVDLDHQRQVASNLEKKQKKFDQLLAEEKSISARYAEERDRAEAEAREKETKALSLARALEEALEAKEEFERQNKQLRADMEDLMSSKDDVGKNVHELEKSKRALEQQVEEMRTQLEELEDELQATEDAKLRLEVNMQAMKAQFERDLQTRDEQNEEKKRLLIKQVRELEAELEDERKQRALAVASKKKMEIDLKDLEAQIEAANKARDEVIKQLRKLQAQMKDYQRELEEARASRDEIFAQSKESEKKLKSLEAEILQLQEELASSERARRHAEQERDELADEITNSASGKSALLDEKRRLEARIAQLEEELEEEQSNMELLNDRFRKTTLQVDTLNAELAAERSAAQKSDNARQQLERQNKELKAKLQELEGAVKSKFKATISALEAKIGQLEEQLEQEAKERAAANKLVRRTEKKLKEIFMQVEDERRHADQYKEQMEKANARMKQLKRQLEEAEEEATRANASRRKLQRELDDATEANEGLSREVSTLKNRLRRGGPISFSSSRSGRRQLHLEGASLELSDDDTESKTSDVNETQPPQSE

No constants are given. Whether binding was seen depends on the method and setting. Binding seen in cells or lysates may run through a third protein. These calls come from enrichment with a bait or labelling near it, and not all partners need be listed. Sequences can lack the tags named with a protein.

T1: Halo-tagged PKP2 (cardiac specific PKP2a, wild type) (human) (UniProt Q99959)
T1 sequence: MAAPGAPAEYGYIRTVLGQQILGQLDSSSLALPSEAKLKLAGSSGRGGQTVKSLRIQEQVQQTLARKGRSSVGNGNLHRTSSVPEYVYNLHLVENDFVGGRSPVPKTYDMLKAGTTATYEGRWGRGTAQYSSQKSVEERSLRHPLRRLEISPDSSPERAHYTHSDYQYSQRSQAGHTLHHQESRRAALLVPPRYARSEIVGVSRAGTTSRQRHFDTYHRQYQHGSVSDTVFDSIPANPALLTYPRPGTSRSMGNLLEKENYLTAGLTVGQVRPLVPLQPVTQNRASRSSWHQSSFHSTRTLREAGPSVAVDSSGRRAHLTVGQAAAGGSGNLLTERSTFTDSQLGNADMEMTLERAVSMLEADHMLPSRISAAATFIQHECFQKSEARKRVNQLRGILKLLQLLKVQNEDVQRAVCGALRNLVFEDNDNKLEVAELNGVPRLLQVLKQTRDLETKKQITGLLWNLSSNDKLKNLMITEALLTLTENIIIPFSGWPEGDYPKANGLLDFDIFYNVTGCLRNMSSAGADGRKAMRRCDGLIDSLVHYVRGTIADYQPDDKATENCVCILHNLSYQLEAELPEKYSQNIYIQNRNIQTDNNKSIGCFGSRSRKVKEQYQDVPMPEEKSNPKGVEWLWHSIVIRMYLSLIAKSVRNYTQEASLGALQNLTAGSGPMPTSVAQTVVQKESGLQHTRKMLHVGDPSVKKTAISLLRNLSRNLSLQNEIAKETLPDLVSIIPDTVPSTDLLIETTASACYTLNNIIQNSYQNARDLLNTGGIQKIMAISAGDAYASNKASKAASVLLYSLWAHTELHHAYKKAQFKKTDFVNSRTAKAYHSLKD

B1: plakoglobin (JUP) (protein, UniProt P14923 1-745)
chain: MEVMNLMEQPIKVTEWQQTYTYDSGIHSGANTCVPSVSSKGIMEEDEACGRQYTLKKTTTYTQGVPPSQGDLEYQMSTTARAKRVREAMCPGVSGEDSSLLLATQVEGQATNLQRLAEPSQLLKSAIVHLINYQDDAELATRALPELTKLLNDEDPVVVTKAAMIVNQLSKKEASRRALMGSPQLVAAVVRTMQNTSDLDTARCTTSILHNLSHHREGLLAIFKSGGIPALVRMLSSPVESVLFYAITTLHNLLLYQEGAKMAVRLADGLQKMVPLLNKNNPKFLAITTDCLQLLAYGNQESKLIILANGGPQALVQIMRNYSYEKLLWTTSRVLKVLSVCPSNKPAIVEAGGMQALGKHLTSNSPRLVQNCLWTLRNLSDVATKQEGLESVLKILVNQLSVDDVNVLTCATGTLSNLTCNNSKNKTLVTQNSGVEALIHAILRAGDKDDITEPAVCALRHLTSRHPEAEMAQNSVRLNYGIPAIVKLLNQPNQWPLVKATIGLIRNLALCPANHAPLQEAAVIPRLVQLLVKAHQDAQRHVAAGTQQPYTDGVRMEEIVEGCTGALHILARDPMNRMEIFRLNTIPLFVQLLYSSVENIQRVAAGVLCELAQDKEAADAIDAEGASAPLMELLHSRNEGTATYAAAVLFRISEDKNPDYRKRVSVELTNSLFKHDPAAWEAAQSMIPINEPYGDDMDATYRPMYSSDVPLDPLEMHMDMDGDYPIDTYSDGLRPPYPTADHMLA

This test concerns the target T1, Halo-tagged PKP2 (cardiac specific PKP2a, wild type) (human). Description: affinity purification with mass spectrometry; HaloTag pull-down from HEK293T lysate (Mammalian Lysis Buffer) on HaloLink resin; washed in 100 mM Tris pH 7.6, 150 mM NaCl, 1 mg/mL BSA, 0.05% IGEPAL CA-630; released with TEV protease overnight at 4 °C; LC-MS/MS.
As for “desmoglein (DGS) (human (endogenous in HEK293T))”, the binding result is reported as “binds”. For “desmoplakin (DSP) (from UniProt P15924 1-2871)” the value was “binds”; for “myosin 9 (MYH9) (from UniProt P35579 1-1960)”, “binds”.

As for “myosin 10 (MYH10) (from UniProt P35580 1-1976)”, the binding result was “binds”. In the case of B1, the binding entry was “binds”.
